# Results deposited as PubChem BioAssay AID743454 (Peter MacCallum Cancer Centre, 2014)
# Purpose: 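Search for knock-downs that restore vorinostat killing in resistant colon cancer cells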 (primary screen)
# Cells: human HCT116-VR colon cancer cells, selected for vorinostat resistance
# Reagents: siRNA pool against human genes, 40 nM siRNA pool
# Time to read-out: vorinostat for 24 h, read-out about 72 h after transfection
# Challenge: vorinostat at 2.5 µM final
# Measurement: 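Two measures, CellTiter-Fluor viability and luminescent caspase 3/7 activity, each as fold change against same-plate mock wells, mean of duplicates, then screen-wide robust z-score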
# Direction: viability robust z-score: higher = more viable cells than screen typical; caspase robust z-score: higher = more caspase 3/7 activity than screen typical
# Hit rule: 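a knock-down is a hit when classed RV1 or RV2 for lowered viability, or CA1 or CA2 for caspase activation; those lethal without drug were dropped; hits were retested singly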
# The whole screen tested about 18,000 reagents; shown is a random part of them. 450 of all reagents (2.5%) count as active. 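Single biological run; no consistent viability z cut-off exists, so the class columns, not z-scores, define the calls.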 Reagent sequences are not shown.
gene symbol,viability hit class,caspase hit class,viability robust z-score,caspase robust z-score,activity call
HOXB2 (homeobox B2),no change,no change,0.36,-0.87,inactive
ZSCAN4 (zinc finger and SCAN domain containing 4),no change,no change,0.35,-0.79,inactive
TMPRSS5 (transmembrane serine protease 5),no change,no change,-0.84,0.65,inactive
LGALS9 (galectin 9),no change,no change,-0.29,-0.52,inactive
TMEM14C (transmembrane protein 14C),no change,no change,-1.55,-1.38,inactive
HMCN2 (hemicentin 2),no change,no change,-0.72,-0.36,inactive
HMX1 (H6 family homeobox 1),no change,no change,1.84,-0.48,inactive
CHCHD3 (coiled-coil-helix-coiled-coil-helix domain containing 3),no change,no change,2.4,1.13,inactive
PTPRS (protein tyrosine phosphatase receptor type S),RV2 (reduced viability),no change,-3.38,-0.13,active

A stretch taken from the entries so far:
gene symbol,viability hit class,caspase hit class,viability robust z-score,caspase robust z-score,activity call
CHCHD3 (coiled-coil-helix-coiled-coil-helix domain containing 3),no change,no change,2.4,1.13,inactive
PTPRS (protein tyrosine phosphatase receptor type S),RV2 (reduced viability),no change,-3.38,-0.13,active

Next entries follow.
gene symbol,viability hit class,caspase hit class,viability robust z-score,caspase robust z-score,activity call
LPP,no change,no change,-0.94,-0.9,inactive
FRMD1 (FERM domain containing 1),no change,no change,1.37,2.34,inactive
GPHB5 (glycoprotein hormone subunit beta 5),no change,no change,-0.39,-0.56,inactive
WDR31 (WD repeat domain 31),no change,no change,-0.48,-0.78,inactive
WDR90 (WD repeat domain 90),no change,no change,0.52,-1.12,inactive
CLSTN3 (calsyntenin 3),no change,no change,-0.42,1.24,inactive
PIK3C2A,no change,no change,-4.02,1.24,inactive
"ANP32CP (acidic nuclear phosphoprotein 32 family member C, pseudogene)",no change,no change,-1.74,0.06,inactive
"RAB25 (RAB25, member RAS oncogene family)",no change,no change,-1.47,0.84,inactive
RANBP2 (RAN binding protein 2),no change,no change,-0.77,1.5,inactive
SSTR2 (somatostatin receptor 2),no change,no change,0.71,1.7,inactive
DDOST,no change,no change,0.36,-0.3,inactive
"NAA50 (N-alpha-acetyltransferase 50, NatE catalytic subunit)",no change,no change,0.64,0.02,inactive
TRNT1 (tRNA nucleotidyl transferase 1),no change,no change,0.57,-0.62,inactive
